Laboratory results from patent US7678791B2, “Nitroheteroaryl-containing rifamycin derivatives” (Cumbre IP Ventures, L.P., priority 2006, dated 2010).
Converted amounts (≈) assume the structure as drawn.

System: Mycobacterium tuberculosis H37Rv
Test: MIC, M. tuberculosis
Assay type: cell-based

CO[C@H]1/C=C/O[C@@]2(C)Oc3c(C)c(O)c4c(O)c(c(/C=N/N5CCN(C)CC5)c(O)c4c3C2=O)NC(=O)/C(C)=C\C=C\[C@H](C)[C@H](O)[C@@H](C)[C@@H](O)[C@@H](C)[C@H](OC(C)=O)[C@@H]1C [rifampin, reference compound]
MIC: 0.03 µg/mL (≈ 0.0365 µM)
